# Test results reported in the supplement of paper PMC3334620.
# Over roughly 33,000 sequences, “E-score (-0.5 to 0.5)” has its median near -0.0059; the highest 2% begin near 0.26. The list shows a part of the results.
# Biological target: T1, Cin5 (UniProt P40917)
# T1 sequence: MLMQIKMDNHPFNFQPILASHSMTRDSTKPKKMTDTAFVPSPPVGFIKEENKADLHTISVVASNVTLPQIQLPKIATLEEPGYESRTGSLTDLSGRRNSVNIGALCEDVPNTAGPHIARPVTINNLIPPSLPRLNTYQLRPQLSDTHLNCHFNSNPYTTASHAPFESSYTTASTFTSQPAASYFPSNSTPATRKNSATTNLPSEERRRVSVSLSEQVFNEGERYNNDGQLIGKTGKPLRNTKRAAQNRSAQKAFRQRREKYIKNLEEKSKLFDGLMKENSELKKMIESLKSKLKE
# Test: PBM E-score (8-mer binding enrichment) (E-score (-0.5 to 0.5)); higher = stronger / more preferred TF binding
# Settings: protein concentration: 100 nM; construct: GST-full length
# Summary of the method: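 For each ungapped eight-base word taken together with its reverse complement, the Universal PBM Analysis Suite assigned an E-score. Binding data came from GST-tagged yeast transcription factors, applied at about 100-200 nM, on universal all-10-mer Agilent arrays made double-stranded by primer extension. Fluorescent anti-GST marked bound protein, and scans were normalised with masliner.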
row,Sequence,PBM E-score
1,ACACCTGA,0.139
2,GTTAGCGA,0.0366
3,AAGGAATC,-0.0453
4,AGCCTCAA,-0.212
5,GCCTTCTA,-0.149
6,ACCTTATC,0.0648
7,CCGGTGGC,-0.263
8,AAGACGGT,-0.171
9,GTTGTGCA,-0.0995
10,AACTTCGT,-0.032
11,CCCACCCG,0.293
12,ATGTACTC,0.0954
13,ACCCAATG,-0.0441
14,ACGGCATC,-0.0378
15,GTTTTTGA,0.0409
16,CCGTGGCC,-0.228
17,ATCCATGA,0.0386
18,CAGGACCA,-0.107
19,CTGAAAAG,0.0629
20,GAACGTTC,-0.134
21,ATTGCCAC,0.0224
22,AGCGATTA,0.127

row,Sequence,PBM E-score
1,GAGCGTAC,-0.075
2,AGCCGAAG,-0.0693
3,CTGAGCAA,-0.0216
4,CCTTGCAC,-0.0869
5,GACGTCTC,-0.0746
6,GAGTGAAA,0.118
7,ATCTAGGG,0.0573
8,TCCAACCA,0.0295
9,ATCGTGCC,-0.155
10,CAGATCTC,-0.0708
11,AGGCTCCC,-0.293
12,AGCACACC,-0.128
13,AACCAAAC,-0.0491
14,ACCAAAAA,0.234
15,ATTTAGGC,0.104
16,ATCCTAGG,-0.113
17,CCTACAGA,-0.187
18,ACCCCGGT,-0.186
19,CTGGAGCC,-0.204
20,AATGGGGT,0.101
21,GGTTAAAC,-0.00883
22,CGTAGTTC,-0.162

# A section from further up, for reference:
row,Sequence,PBM E-score
5,GACGTCTC,-0.0746
6,GAGTGAAA,0.118
7,ATCTAGGG,0.0573
8,TCCAACCA,0.0295
9,ATCGTGCC,-0.155
10,CAGATCTC,-0.0708
11,AGGCTCCC,-0.293
12,AGCACACC,-0.128
13,AACCAAAC,-0.0491
14,ACCAAAAA,0.234
15,ATTTAGGC,0.104
16,ATCCTAGG,-0.113
17,CCTACAGA,-0.187
18,ACCCCGGT,-0.186
19,CTGGAGCC,-0.204
20,AATGGGGT,0.101
21,GGTTAAAC,-0.00883

# The results go on:

row,Sequence,PBM E-score
1,GCCGAGGC,0.00479
2,ATTTGGGC,0.00638
3,CTTAAGGC,-0.0955
4,ATCGCTTC,0.00288
5,GCAAACCA,0.0992
6,CGAGCACG,0.0135
7,AGCGAGAT,0.114
8,CTGCAGGC,-0.329
9,GCTAAACA,0.0163
10,CTATGCCA,-0.0387
11,GGTTATAA,0.228
12,CAACCACG,0.0486
13,AACCAAGG,0.0313
14,GCCTCAAA,0.0112
15,AAAGGCGT,-0.174
16,CGAGGATA,0.0758
17,ATCGTGGA,0.0643
18,GAAGCGAC,0.019
19,AAGCCTAT,0.138
20,CAGGCAGA,-0.0752
21,GTAGCTAA,0.0101
22,CTAGCGGC,-0.329

row,Sequence,PBM E-score
1,AGTAGGCC,-0.101
2,AACTGGTC,-0.0358
3,GCCGCGTA,-0.071
4,AGAGGGTG,-0.0942
5,CATGCTCA,0.12
6,AGCCTTCG,-0.168
7,CATGCCTC,0.02
8,CTAAGTGC,-0.119
9,CCATAGGG,-0.105
10,AGATGATC,0.119
11,GTCTGCGA,-0.0683
12,AGTCGTCG,-0.221
13,CGTCATTC,0.252
14,TGCAAGCA,-0.118
15,ACCAGCTA,-0.0702
16,ATTATCCC,0.151
17,ATGCGCAA,0.128
18,CGTGAAAG,-0.0748
19,ACTGCCCA,0.0013
20,GCTCCCAA,-0.213
